No constants are given. Whether binding was seen depends on the method and setting. In cells and extracts the contact can be indirect. A yes stands for co-enrichment or nearness to the bait. Other partners may have been found. A no says only that the protein was not detected with the bait.
Target: His6-MBP-FtsH (E. coli), P0AAI3
Assay: affinity purification with mass spectrometry; His6-MBP-FtsH overproduced in E. coli BL21 Δarg/Δlys grown at 30°C (slow), 37°C (medium) or 40°C (fast growth); Ni-NTA affinity purification from the lysate; co-purified proteins identified by LC-MS/MS with a super-SILAC standard; enriched >2-fold over the His6-MBP empty-vector control, p<0.05, or 'FtsH only'
Details: remark: other sources report otherwise

- binding: no binding
B1: LapB, P0AB58 1-389 (protein)
chain: MLELLFLLLPVAAAYGWYMGRRSAQQNKQDEANRLSRDYVAGVNFLLSNQQDKAVDLFLDMLKEDTGTVEAHLTLGNLFRSRGEVDRAIRIHQTLMESASLTYEQRLLAIQQLGRDYMAAGLYDRAEDMFNQLTDETDFRIGALQQLLQIYQATSEWQKAIDVAERLVKLGKDKQRVEIAHFYCELALQHMASDDLDRAMTLLKKGAAADKNSARVSIMMGRVFMAKGEYAKAVESLQRVISQDRELVSETLEMLQTCYQQLGKTAEWAEFLQRAVEENTGADAELMLADIIEARDGSEAAQVYITRQLQRHPTMRVFHKLMDYHLNEAEEGRAKESLMVLRDMVGEKVRSKPRYRCQKCGFTAYTLYWHCPSCRAWSTIKPIRGLDGL

From article PMC6339880
